Common to all, as to test: affinity purification with mass spectrometry
For experiment [1], the target named is Ubiquilin-2 4XALS mutant (UBQLN2^4XALS: P497H, P506T, P509S, P525S) (human (endogenous in iPSCs and iMNs)) (UniProt Q9UHD9).
Experiment [2] concerns the target Ubiquilin-2, wild type (UBQLN2^WT) (human (endogenous in iPSCs and iMNs)) (UniProt Q9UHD9).
In experiment [3] the target is Ubiquilin-2 4XALS mutant (UBQLN2^4XALS: P497H, P506T, P509S, P525S) (human (endogenous in iPSCs and iMNs)) (UniProt Q9UHD9). The source holds these as a separate data set.
Experiment [4] deals with Ubiquilin-2, wild type (UBQLN2^WT) (human (endogenous in iPSCs and iMNs)) (UniProt Q9UHD9). This is another data set of the same source.
Experiment [5] deals with Ubiquilin-2 P497H clinical mutant (UBQLN2^P497H) (human (endogenous in iPSCs and iMNs)) (UniProt Q9UHD9).
Experiment [6] deals with Ubiquilin-2 4XALS mutant (UBQLN2^4XALS: P497H, P506T, P509S, P525S) (human (endogenous in iPSCs and iMNs)) (UniProt Q9UHD9). This is another data set of the same source.
The target of experiment [7] is Ubiquilin-2 P497H clinical mutant (UBQLN2^P497H) (human (endogenous in iPSCs and iMNs)) (UniProt Q9UHD9). The source holds these as a separate data set.

Chains of the proteins cited; added tags and fusions are not shown. Lines headed by an entry give the natural chain unless they say otherwise; changes in a name come on top.
UniProt Q9UHD9: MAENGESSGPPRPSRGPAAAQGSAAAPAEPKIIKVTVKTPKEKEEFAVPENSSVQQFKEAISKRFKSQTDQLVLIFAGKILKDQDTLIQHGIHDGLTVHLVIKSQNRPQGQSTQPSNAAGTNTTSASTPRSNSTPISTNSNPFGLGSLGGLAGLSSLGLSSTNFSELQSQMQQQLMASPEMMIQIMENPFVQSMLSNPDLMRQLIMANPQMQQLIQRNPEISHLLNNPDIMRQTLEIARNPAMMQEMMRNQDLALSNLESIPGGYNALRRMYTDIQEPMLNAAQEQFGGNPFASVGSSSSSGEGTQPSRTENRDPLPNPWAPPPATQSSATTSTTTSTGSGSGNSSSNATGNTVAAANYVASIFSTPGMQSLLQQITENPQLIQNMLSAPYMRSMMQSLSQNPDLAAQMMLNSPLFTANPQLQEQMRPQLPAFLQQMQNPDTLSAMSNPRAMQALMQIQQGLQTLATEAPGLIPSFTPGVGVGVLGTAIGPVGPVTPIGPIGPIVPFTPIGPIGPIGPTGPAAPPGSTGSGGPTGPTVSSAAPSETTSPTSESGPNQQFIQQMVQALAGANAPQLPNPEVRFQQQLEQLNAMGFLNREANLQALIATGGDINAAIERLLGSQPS
UniProt Q01484: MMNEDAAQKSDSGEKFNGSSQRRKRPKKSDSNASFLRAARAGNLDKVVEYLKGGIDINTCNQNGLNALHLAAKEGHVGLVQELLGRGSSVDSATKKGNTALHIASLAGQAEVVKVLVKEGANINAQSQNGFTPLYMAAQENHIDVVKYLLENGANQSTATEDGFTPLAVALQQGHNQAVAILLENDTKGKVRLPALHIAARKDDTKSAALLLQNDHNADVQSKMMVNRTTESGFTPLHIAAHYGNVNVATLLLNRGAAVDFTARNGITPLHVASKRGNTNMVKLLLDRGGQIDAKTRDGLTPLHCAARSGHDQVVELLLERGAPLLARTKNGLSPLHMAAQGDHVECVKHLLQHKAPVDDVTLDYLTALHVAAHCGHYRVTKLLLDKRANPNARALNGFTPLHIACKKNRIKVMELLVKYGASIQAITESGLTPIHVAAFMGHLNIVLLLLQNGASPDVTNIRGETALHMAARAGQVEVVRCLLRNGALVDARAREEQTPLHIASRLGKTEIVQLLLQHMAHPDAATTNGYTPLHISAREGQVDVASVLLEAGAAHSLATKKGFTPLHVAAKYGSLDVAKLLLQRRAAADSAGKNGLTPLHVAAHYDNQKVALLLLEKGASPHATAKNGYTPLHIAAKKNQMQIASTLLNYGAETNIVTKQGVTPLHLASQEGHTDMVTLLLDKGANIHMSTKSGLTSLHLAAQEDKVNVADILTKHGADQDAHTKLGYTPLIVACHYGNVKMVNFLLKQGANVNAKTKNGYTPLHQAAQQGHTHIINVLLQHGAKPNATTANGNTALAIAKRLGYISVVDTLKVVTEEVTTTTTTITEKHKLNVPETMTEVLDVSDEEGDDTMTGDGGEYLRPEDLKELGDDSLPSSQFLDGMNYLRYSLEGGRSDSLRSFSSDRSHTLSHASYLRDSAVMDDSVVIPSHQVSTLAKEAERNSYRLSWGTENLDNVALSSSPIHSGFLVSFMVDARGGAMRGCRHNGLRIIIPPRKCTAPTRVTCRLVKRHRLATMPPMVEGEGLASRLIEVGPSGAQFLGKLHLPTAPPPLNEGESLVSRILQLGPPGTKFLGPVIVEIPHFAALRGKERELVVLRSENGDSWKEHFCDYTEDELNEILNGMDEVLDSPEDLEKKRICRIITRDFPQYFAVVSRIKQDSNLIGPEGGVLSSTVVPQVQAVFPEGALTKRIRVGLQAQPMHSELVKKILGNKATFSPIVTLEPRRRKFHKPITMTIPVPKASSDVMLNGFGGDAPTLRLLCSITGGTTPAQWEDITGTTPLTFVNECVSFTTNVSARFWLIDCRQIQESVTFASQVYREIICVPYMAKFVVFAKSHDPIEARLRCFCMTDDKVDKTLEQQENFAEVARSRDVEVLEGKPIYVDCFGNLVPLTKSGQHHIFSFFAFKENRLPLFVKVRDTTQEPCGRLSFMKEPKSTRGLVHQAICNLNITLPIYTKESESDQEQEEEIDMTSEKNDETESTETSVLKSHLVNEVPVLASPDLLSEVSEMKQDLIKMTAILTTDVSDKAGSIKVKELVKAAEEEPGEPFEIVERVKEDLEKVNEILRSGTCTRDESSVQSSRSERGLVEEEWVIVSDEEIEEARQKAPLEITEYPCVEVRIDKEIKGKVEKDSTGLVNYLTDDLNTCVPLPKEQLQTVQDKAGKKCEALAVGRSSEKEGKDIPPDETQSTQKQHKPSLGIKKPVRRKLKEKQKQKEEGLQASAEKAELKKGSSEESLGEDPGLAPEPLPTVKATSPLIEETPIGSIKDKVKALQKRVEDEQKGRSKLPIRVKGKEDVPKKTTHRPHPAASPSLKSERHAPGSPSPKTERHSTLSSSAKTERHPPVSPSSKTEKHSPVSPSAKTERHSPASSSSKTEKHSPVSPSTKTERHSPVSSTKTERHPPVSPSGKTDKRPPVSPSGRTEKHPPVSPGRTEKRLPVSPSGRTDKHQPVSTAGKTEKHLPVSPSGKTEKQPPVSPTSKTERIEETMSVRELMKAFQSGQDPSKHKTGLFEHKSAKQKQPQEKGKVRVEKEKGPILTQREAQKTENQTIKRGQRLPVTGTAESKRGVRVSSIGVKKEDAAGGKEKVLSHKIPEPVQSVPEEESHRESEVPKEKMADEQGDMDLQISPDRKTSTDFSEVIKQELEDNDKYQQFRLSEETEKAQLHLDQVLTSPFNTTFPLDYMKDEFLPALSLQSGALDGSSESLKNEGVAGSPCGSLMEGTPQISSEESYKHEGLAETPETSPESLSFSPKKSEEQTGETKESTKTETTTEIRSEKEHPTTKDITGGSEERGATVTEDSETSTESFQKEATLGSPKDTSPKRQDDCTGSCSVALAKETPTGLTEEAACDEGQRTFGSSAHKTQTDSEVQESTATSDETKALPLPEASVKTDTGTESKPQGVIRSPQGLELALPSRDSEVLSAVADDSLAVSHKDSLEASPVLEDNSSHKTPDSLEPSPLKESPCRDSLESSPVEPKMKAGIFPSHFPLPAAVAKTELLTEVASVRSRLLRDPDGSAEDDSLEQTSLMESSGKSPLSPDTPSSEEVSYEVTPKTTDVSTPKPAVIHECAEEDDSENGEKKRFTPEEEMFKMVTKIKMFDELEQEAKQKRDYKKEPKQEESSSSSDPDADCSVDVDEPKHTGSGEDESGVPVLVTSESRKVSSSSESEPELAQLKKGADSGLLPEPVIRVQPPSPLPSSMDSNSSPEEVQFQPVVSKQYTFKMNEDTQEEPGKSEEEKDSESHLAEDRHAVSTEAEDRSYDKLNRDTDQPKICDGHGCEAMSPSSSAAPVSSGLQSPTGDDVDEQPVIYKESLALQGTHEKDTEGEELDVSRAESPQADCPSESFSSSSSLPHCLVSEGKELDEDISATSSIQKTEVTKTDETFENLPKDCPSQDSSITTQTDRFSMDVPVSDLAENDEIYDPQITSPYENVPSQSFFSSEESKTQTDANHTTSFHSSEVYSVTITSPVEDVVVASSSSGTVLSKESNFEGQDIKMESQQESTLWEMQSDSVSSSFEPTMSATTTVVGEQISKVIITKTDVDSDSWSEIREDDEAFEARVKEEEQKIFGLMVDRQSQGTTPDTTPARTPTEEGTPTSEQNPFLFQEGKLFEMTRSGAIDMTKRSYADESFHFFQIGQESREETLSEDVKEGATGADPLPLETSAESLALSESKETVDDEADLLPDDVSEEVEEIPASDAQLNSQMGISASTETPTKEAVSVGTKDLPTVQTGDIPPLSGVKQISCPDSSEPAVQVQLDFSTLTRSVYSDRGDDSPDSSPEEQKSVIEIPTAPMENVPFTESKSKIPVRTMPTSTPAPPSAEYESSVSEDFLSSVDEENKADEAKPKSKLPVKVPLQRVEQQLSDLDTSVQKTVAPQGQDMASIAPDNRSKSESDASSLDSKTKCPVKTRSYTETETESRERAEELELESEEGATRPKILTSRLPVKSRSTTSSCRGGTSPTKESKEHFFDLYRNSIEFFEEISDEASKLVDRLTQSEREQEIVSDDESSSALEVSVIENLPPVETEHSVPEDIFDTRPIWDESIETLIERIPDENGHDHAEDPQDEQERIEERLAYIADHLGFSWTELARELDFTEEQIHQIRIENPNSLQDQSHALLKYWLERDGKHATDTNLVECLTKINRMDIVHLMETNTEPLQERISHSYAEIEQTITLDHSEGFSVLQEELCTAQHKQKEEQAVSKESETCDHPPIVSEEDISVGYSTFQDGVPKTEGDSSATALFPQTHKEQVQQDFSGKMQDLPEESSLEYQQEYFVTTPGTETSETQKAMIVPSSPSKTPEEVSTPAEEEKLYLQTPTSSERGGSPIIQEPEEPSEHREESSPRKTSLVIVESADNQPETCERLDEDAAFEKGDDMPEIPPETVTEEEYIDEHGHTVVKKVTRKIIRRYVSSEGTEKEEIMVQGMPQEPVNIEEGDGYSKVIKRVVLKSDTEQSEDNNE
UniProt Q07812: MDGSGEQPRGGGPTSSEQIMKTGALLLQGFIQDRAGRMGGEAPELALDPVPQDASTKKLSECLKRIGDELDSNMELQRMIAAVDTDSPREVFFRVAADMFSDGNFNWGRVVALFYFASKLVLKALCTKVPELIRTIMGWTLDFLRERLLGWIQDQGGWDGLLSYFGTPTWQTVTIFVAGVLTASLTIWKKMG
UniProt P46379: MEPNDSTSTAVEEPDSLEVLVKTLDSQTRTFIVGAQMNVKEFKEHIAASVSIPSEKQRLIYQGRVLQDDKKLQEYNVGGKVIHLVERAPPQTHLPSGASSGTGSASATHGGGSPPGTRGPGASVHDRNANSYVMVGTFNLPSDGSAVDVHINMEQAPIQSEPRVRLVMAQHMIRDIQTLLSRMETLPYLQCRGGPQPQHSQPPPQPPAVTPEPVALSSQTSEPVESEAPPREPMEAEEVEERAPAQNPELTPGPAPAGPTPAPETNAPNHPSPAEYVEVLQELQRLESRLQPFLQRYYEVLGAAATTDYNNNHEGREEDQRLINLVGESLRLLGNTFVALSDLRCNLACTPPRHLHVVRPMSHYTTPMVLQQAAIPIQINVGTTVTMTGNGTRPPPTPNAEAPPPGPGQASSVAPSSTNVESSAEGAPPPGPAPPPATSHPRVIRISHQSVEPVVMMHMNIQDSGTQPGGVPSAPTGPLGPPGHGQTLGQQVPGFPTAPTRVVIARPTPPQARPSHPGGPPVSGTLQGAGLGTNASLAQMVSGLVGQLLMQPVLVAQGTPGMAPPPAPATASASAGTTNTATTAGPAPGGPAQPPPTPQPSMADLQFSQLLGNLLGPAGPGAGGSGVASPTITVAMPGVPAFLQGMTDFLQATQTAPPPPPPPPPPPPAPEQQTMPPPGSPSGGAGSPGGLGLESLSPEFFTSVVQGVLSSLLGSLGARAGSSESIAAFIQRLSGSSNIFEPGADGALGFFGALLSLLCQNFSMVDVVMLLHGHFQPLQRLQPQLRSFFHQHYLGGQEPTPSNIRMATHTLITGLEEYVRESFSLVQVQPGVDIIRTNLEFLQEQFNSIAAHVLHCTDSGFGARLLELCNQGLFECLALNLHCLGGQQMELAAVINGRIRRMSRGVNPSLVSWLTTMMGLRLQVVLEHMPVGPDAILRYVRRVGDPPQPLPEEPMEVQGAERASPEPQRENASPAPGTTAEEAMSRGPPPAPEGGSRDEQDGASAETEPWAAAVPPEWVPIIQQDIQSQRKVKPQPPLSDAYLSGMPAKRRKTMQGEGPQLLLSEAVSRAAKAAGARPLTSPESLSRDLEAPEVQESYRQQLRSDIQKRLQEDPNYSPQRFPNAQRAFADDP

Read-outs that look alike come from different tables or passages of the source. No constants are given. Whether binding was seen depends on the method and setting. Binding seen in cells or lysates may run through a third protein. Here binding means that the protein was enriched with, or labelled near, the bait; the list need not be complete.

In the case of ANK2 (from UniProt Q01484 1-3957), the binding entry in experiment [1] is recorded as “binds”.

On to BAX (from UniProt Q07812 1-192), for which, in experiment [2], the binding result was “binds”. With “BCL2-associated athanogene 6 (BAG6) (from UniProt P46379 1-1132)”, the binding entry in experiment [3] and in experiment [1] was “binds” throughout.

B1: BTBD2 (protein, UniProt Q9BX70 1-525)
chain: MAAGGSGGRASCPPGVGVGPGTGGSPGPSANAAATPAPGNAAAAAAAAAAAAAAPGPTPPAPPGPGTDAQAAGAERAEEAAGPGAAALQREAAYNWQASKPTVQERFAFLFNNEVLCDVHFLVGKGLSSQRIPAHRFVLAVGSAVFDAMFNGGMATTSTEIELPDVEPAAFLALLKFLYSDEVQIGPETVMTTLYTAKKYAVPALEAHCVEFLKKNLRADNAFMLLTQARLFDEPQLASLCLENIDKNTADAITAEGFTDIDLDTLVAVLERDTLGIREVRLFNAVVRWSEAECQRQQLQVTPENRRKVLGKALGLIRFPLMTIEEFAAGPAQSGILVDREVVSLFLHFTVNPKPRVEFIDRPRCCLRGKECSINRFQQVESRWGYSGTSDRIRFSVNKRIFVVGFGLYGSIHGPTDYQVNIQIIHTDSNTVLGQNDTGFSCDGSASTFRVMFKEPVEVLPNVNYTACATLKGPDSHYGTKGLRKVTHESPTTGAKTCFTFCYAAGNNNGTSVEDGQIPEVIFYT
As for B1, the binding result in experiment [1] is listed as “binds”.

B2: FAM168A/TCRP1 (protein, UniProt Q92567 1-244)
chain: MNPVYSPVQPGAPYGNPKNMAYTGYPTAYPAAAPAYNPSLYPTNSPSYAPEFQFLHSAYATLLMKQAWPQNSSSCGTEGTFHLPVDTGTENRTYQASSAAFRYTAGTPYKVPPTQSNTAPPPYSPSPNPYQTAMYPIRSAYPQQNLYAQGAYYTQPVYAAQPHVIHHTTVVQPNSIPSAIYPAPVAAPRTNGVAMGMVAGTTMAMSAGTLLTTPQHTAIGAHPVSMPTYRAQGTPAYSYVPPHW
Turning to B2, the binding entry in experiment [1] and in experiment [4] was “binds” in each case.

B3: HYOU1 (also known as GRP170) (protein, UniProt Q9Y4L1 33-999)
chain: LAVMSVDLGSESMKVAIVKPGVPMEIVLNKESRRKTPVIVTLKENERFFGDSAASMAIKNPKATLRYFQHLLGKQADNPHVALYQARFPEHELTFDPQRQTVHFQISSQLQFSPEEVLGMVLNYSRSLAEDFAEQPIKDAVITVPVFFNQAERRAVLQAARMAGLKVLQLINDNTATALSYGVFRRKDINTTAQNIMFYDMGSGSTVCTIVTYQMVKTKEAGMQPQLQIRGVGFDRTLGGLEMELRLRERLAGLFNEQRKGQRAKDVRENPRAMAKLLREANRLKTVLSANADHMAQIEGLMDDVDFKAKVTRVEFEELCADLFERVPGPVQQALQSAEMSLDEIEQVILVGGATRVPRVQEVLLKAVGKEELGKNINADEAAAMGAVYQAAALSKAFKVKPFVVRDAVVYPILVEFTREVEEEPGIHSLKHNKRVLFSRMGPYPQRKVITFNRYSHDFNFHINYGDLGFLGPEDLRVFGSQNLTTVKLKGVGDSFKKYPDYESKGIKAHFNLDESGVLSLDRVESVFETLVEDSAEEESTLTKLGNTISSLFGGGTTPDAKENGTDTVQEEEESPAEGSKDEPGEQVELKEEAEAPVEDGSQPPPPEPKGDATPEGEKATEKENGDKSEAQKPSEKAEAGPEGVAPAPEGEKKQKPARKRRMVEEIGVELVVLDLPDLPEDKLAQSVQKLQDLTLRDLEKQEREKAANSLEAFIFETQDKLYQPEYQEVSTEEQREEISGKLSAASTWLEDEGVGATTVMLKEKLAELRKLCQGLFFRVEERKKWPERLSALDNLLNHSSMFLKGARLIPEMDQIFTEVEMTTLEKVINETWAWKNATLAEQAKLPATEKPVLLSKDIEAKMMALDREVQYLLNKAKFTKPRPRPKDKNGTRAEPPLNASASDQGEKVIPPAGQTEDAEPISEPEKVETGSEPGDTEPLELGGPGAEPEQKEQSTGQKRPLKNDEL
Consider B3, for which the binding result in experiment [1], in experiment [5], in experiment [4], in experiment [6] and in experiment [7] was “binds” throughout.

B4: Paternally expressed gene 10 (PEG10) (protein, UniProt Q86TG7 1-708)
chain: MTERRRDELSEEINNLREKVMKQSEENNNLQSQVQKLTEENTTLREQVEPTPEDEDDDIELRGAAAAAAPPPPIEEECPEDLPEKFDGNPDMLAPFMAQCQIFMEKSTRDFSVDRVRVCFVTSMMTGRAARWASAKLERSHYLMHNYPAFMMEMKHVFEDPQRREVAKRKIRRLRQGMGSVIDYSNAFQMIAQDLDWNEPALIDQYHEGLSDHIQEELSHLEVAKSLSALIGQCIHIERRLARAAAARKPRSPPRALVLPHIASHHQVDPTEPVGGARMRLTQEEKERRRKLNLCLYCGTGGHYADNCPAKASKSSPAGKLPGPAVEGPSATGPEIIRSPQDDASSPHLQVMLQIHLPGRHTLFVRAMIDSGASGNFIDHEYVAQNGIPLRIKDWPILVEAIDGRPIASGPVVHETHDLIVDLGDHREVLSFDVTQSPFFPVVLGVRWLSTHDPNITWSTRSIVFDSEYCRYHCRMYSPIPPSLPPPAPQPPLYYPVDGYRVYQPVRYYYVQNVYTPVDEHVYPDHRLVDPHIEMIPGAHSIPSGHVYSLSEPEMAALRDFVARNVKDGLITPTIAPNGAQVLQVKRGWKLQVSYDCRAPNNFTIQNQYPRLSIPNLEDQAHLATYTEFVPQIPGYQTYPTYAAYPTYPVGFAWYPVGRDGQGRSLYVPVMITWNPHWYRQPPVPQYPPPQPPPPPPPPPPPPSYSTL
Turning to B4, in experiment [1], the binding entry is “binds”.

For the origin of these results see doi:10.1101/2025.10.15.682441.
